From patent publication EP0585300B1 (priority 1991, dated 1997)
Part of at least one peptide drawing is inferred or uncertain, most often the ends.

Tested on: galanin receptor
Assay: Displacement of 125I-galanin from rat hypothalamus membranes
Format: binding
Details: membranes from rat hypothalami, 0.1 - 0.2 nM 125I-galanin

Row | SMILES | displacement curves
1 | CC[C@H](C)[C@H](NC(=O)[C@H](C)NC(=O)[C@H](Cc1c[nH]cn1)NC(=O)[C@@H]1CCCN1C(=O)CNC(=O)[C@H](CC(C)C)NC(=O)[C@H](CC(C)C)NC(=O)[C@H](Cc1ccc(O)cc1)NC(=O)CNC(=O)[C@H](C)NC(=O)[C@H](CO)NC(=O)[C@H](CC(N)=O)NC(=O)[C@H](CC(C)C)NC(=O)[C@@H](NC(=O)[C@H](Cc1c[nH]c2ccccc12)NC(=O)CN)[C@@H](C)O)C(=O)N[C@@H](CC(=O)O)C(=O)N[C@@H](CC(N)=O)C(=O)N[C@@H](Cc1c[nH]cn1)C(=O)N[C@@H](CCCNC(=N)N)C(=O)N[C@@H](CO)C(=O)N[C@@H](Cc1ccccc1)C(=O)N[C@@H](CO)C(=O)N[C@@H](CC(=O)O)C(=O)N[C@@H](CCCCN)C(=O)N[C@@H](Cc1c[nH]cn1)C(=O)NCC(=O)N[C@@H](CC(C)C)C(=O)N[C@H](C(N)=O)[C@@H](C)O [Rat galanin] | indistriguishable displacement curves
2 | CC[C@H](C)[C@H](NC(=O)[C@H](C)NC(=O)[C@H](Cc1c[nH]cn1)NC(=O)[C@@H]1CCCN1C(=O)CNC(=O)[C@H](CC(C)C)NC(=O)[C@H](CC(C)C)NC(=O)[C@H](Cc1ccc(O)cc1)NC(=O)CNC(=O)[C@H](C)NC(=O)[C@H](CO)NC(=O)[C@H](CC(N)=O)NC(=O)[C@H](CC(C)C)NC(=O)[C@@H](NC(=O)[C@H](Cc1c[nH]c2ccccc12)NC(=O)CN)[C@@H](C)O)C(=O)N[C@@H](CC(=O)O)C(=O)N[C@@H](CC(N)=O)C(=O)N[C@@H](Cc1c[nH]cn1)C(=O)N[C@@H](CCCNC(=N)N)C(=O)N[C@@H](CO)C(=O)N[C@@H](Cc1ccccc1)C(=O)N[C@@H](Cc1c[nH]cn1)C(=O)N[C@@H](CC(=O)O)C(=O)N[C@@H](CCCCN)C(=O)N[C@@H](Cc1ccc(O)cc1)C(=O)NCC(=O)N[C@@H](CC(C)C)C(=O)N[C@@H](C)C(N)=O [porcine galanin, porcine galanin(1-29)] | indistriguishable displacement curves
